Data from the supplement of paper PMC4604168 (melanoma cell lines).
The list shows a part of the results. Single values are uncertain, as repeats are few or missing.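 The apoptosis fraction was the count of cleaved-PARP antibody-stained nuclei relative to all DNA-stained nuclei, imaged in 1,536-well plates. Screening doses were set so most cells survived, and baseline and induced cleaved-PARP levels vary greatly across cell lines.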

Tests used:
Experiment in all cases: cleaved PARP positive nuclei fraction relative to DMSO control; melanoma cells; higher = more apoptosis
Settings in all cases: library dose: low library concentration; 72 h
MZ2-MEL = tested on: MZ2-MEL
MeWo = tested on: MeWo
RPMI7951 = tested on: RPMI7951
RVH-421 = tested on: RVH-421
SkMel28 = tested on: SkMel28
SkMel2 = tested on: SkMel2
SkMel30 = tested on: SkMel30
SkMel5 = tested on: SkMel5
UACC257 = tested on: UACC257
UACC62 = tested on: UACC62

Structure (SMILES) | cleaved PARP positive nuclei fraction (MZ2-MEL) [%] | cleaved PARP positive nuclei fraction (MeWo) [%] | cleaved PARP positive nuclei fraction (RPMI7951) [%] | cleaved PARP positive nuclei fraction (RVH-421) [%] | cleaved PARP positive nuclei fraction (SkMel28) [%] | cleaved PARP positive nuclei fraction (SkMel2) [%] | cleaved PARP positive nuclei fraction (SkMel30) [%] | cleaved PARP positive nuclei fraction (SkMel5) [%] | cleaved PARP positive nuclei fraction (UACC257) [%] | cleaved PARP positive nuclei fraction (UACC62) [%]
COc1cc(Nc2ncc(F)c(Nc3ccc4c(n3)NC(=O)C(C)(C)O4)n2)cc(OC)c1OC [Tamatinib] + CC(C)(C)c1cnc(CSc2cnc(NC(=O)C3CCNCC3)s2)o1 [SNS-032] (first compound 0.4 µM, partner dose 0.01 µM) | 148 | 72.6 | 72 | 181 | 265 | 136 | 78.9 | 138 | 80.2 | 230
Cc1nc(Nc2ncc(C(=O)Nc3c(C)cccc3Cl)s2)cc(N2CCN(CCO)CC2)n1 [dasatanib] + C[C@@H]1CCN(C(=O)CC#N)C[C@@H]1N(C)c1ncnc2[nH]ccc12 [CP690550] (first compound 0.004 µM, partner dose 1 µM) | 30.6 | 104 | 124 | 75.3 | 94 | 145 | 69.6 | 68.4 | 273 | 210
C#Cc1cccc(Nc2ncnc3cc(OCCOC)c(OCCOC)cc23)c1 [erlotinib] + COc1cc2c(Oc3ccc4[nH]c(C)cc4c3F)ncnc2cc1OCCCN1CCCC1 [cediranib] (first compound 0.8 µM, partner dose 0.4 µM) | 82.2 | 106 | 108 | 33.7 | 190 | 136 | 75.2 | 22 | 63.2 | 66.3
C=CCNC1=C2C[C@@H](C)C[C@H](OC)[C@H](O)[C@@H](C)/C=C(\C)[C@H](OC(N)=O)[C@@H](OC)/C=C\C=C(/C)C(=O)NC(=CC1=O)C2=O [Tanespimycin] + CC(C)(C)c1cnc(CSc2cnc(NC(=O)C3CCNCC3)s2)o1 [SNS-032] (first compound 0.002 µM, partner dose 0.01 µM) | 175 | 75.8 | 88.6 | 312 | 109 | 144 | 58.1 | 69.9 | 112 | 84.4
COCC[n+]1c2c(n(Cc3cnccn3)c1C)C(=O)c1ccccc1C2=O + O=C(O)c1ccc(-c2c[nH]c3ncc(-c4ccccc4)cc23)cc1C1CCCC1 [GSK650394] (first compound 0.0004 µM, partner dose 0.16 µM) | 444 | 60 | 59.6 | 46.6 | 186 | 108 | 39.2 | 286 | 105 | 188
OCc1c[nH]c2ccccc12 [Indole-3-carbinol] + COC(=O)c1sccc1S(=O)(=O)Nc1ccc(Nc2ccccc2)cc1OC [GSK0660] (first compound 0.8 µM, partner dose 1 µM) | 52.9 | 53.3 | 28.9 | 97.8 | 66.5 | 68.6 | 120 | 170 | 109 | 149
Cc1nc(Nc2ncc(C(=O)Nc3c(C)cccc3Cl)s2)cc(N2CCN(CCO)CC2)n1 [dasatanib] + Cc1cc(N2CCOCC2)cc2[nH]c(-c3c(NC[C@@H](O)c4cccc(Cl)c4)cc[nH]c3=O)nc12 [BMS536924] (first compound 0.004 µM, partner dose 0.2 µM) | 346 | 124 | 88.7 | 105 | 80.1 | 74.6 | 78.1 | 63.2 | 228 | 306
C#Cc1cccc(Nc2ncnc3cc(OCCOC)c(OCCOC)cc23)c1 [erlotinib] + NC(=O)Nc1cc(-c2cccc(F)c2)sc1C(=O)N[C@H]1CCCNC1 [AZD7762] (first compound 0.8 µM, partner dose 0.02 µM) | 101 | 61.1 | 242 | 51.9 | 55.2 | 51.7 | 44.8 | 37 | 121 | 297
CC(=O)c1c(C)c2cnc(Nc3ccc(N4CCNCC4)cn3)nc2n(C2CCCC2)c1=O [palbociclib] + OCCn1cc(-c2cnc3nnn(Cc4ccc5ncccc5c4)c3n2)cn1 [PF04217903] (first compound 0.04 µM, partner dose 1 µM) | 81.7 | 83.6 | 176 | 106 | 259 | 86.1 | 81.8 | 83.9 | 68.8 | 38.5
Cc1nc(Nc2ncc(C(=O)Nc3c(C)cccc3Cl)s2)cc(N2CCN(CCO)CC2)n1 [dasatanib] + O=C(O)c1ccc(-c2c[nH]c3ncc(-c4ccccc4)cc23)cc1C1CCCC1 [GSK650394] (first compound 0.004 µM, partner dose 0.16 µM) | 327 | 118 | 134 | 41.2 | 73.4 | 93.3 | 71.3 | 92.3 | 78.4 | 92.3
Cn1cncc1[C@@](N)(c1ccc(Cl)cc1)c1ccc2c(c1)c(-c1cccc(Cl)c1)cc(=O)n2C [tipifarnib] + NCC(=O)Nc1ccc(-n2nc(C(F)(F)F)cc2-c2ccc3c(ccc4ccccc43)c2)cc1 [OSU03012] (first compound 0.01 µM, partner dose 1 µM) | 32.9 | 308 | 156 | 124 | 72.5 | 226 | 110 | 74.3 | 176 | 304
CC1(C)NC(=O)N(c2ccc([N+](=O)[O-])c(C(F)(F)F)c2)C1=O [nilutamide] + CC(C)(C)c1cnc(CSc2cnc(NC(=O)C3CCNCC3)s2)o1 [SNS-032] (first compound 1 µM, partner dose 0.01 µM) | 155 | 66.7 | 179 | 76.5 | 34.8 | 62.9 | 55.1 | 33.9 | 144 | 39.6
Cc1nc(Nc2ncc(C(=O)Nc3c(C)cccc3Cl)s2)cc(N2CCN(CCO)CC2)n1 [dasatanib] + COc1cc(Nc2ncc(F)c(Nc3ccc4c(n3)NC(=O)C(C)(C)O4)n2)cc(OC)c1OC [Tamatinib] (first compound 0.004 µM, partner dose 0.4 µM) | 202 | 63.8 | 230 | 119 | 187 | 62.7 | 77.4 | 111 | 181 | 191
Cc1nc(Nc2ncc(C(=O)Nc3c(C)cccc3Cl)s2)cc(N2CCN(CCO)CC2)n1 [dasatanib] + COc1cc2c(Oc3ccc4[nH]c(C)cc4c3F)ncnc2cc1OCCCN1CCCC1 [cediranib] (first compound 0.004 µM, partner dose 0.4 µM) | 46.6 | 38.9 | 168 | 46.8 | 1250 | 106 | 61.6 | 369 | 203 | 216
C=CCNC1=C2C[C@@H](C)C[C@H](OC)[C@H](O)[C@@H](C)/C=C(\C)[C@H](OC(N)=O)[C@@H](OC)/C=C\C=C(/C)C(=O)NC(=CC1=O)C2=O [Tanespimycin] + Oc1cc(-c2nc(-c3ccccc3)[nH]c2-c2ccncc2)ccc1Cl [L779450] (first compound 0.002 µM, partner dose 0.2 µM) | 68.9 | 84.1 | 155 | 81 | 189 | 57.7 | 80.5 | 145 | 95.9 | 135
C#Cc1cccc(Nc2ncnc3cc(OCCOC)c(OCCOC)cc23)c1 [erlotinib] + C=CCn1c(=O)c2cnc(Nc3ccc(N4CCN(C)CC4)cc3)nc2n1-c1cccc(C(C)(C)O)n1 [MK1775] (first compound 0.8 µM, partner dose 0.02 µM) | 94.7 | 54.1 | 55.3 | 42.7 | 74.4 | 40.5 | 66.6 | 81.1 | 129 | 207
O=C(CCCCCCC(=O)Nc1ccccc1)NO [vorinostat] + CN(NC(=O)CC(=O)NN(C)C(=S)c1ccccc1)C(=S)c1ccccc1 [STA4783] (first compound 0.08 µM, partner dose 0.006 µM) | 33 | 72.7 | 52.4 | 44.7 | 249 | 56.7 | 83.7 | 345 | 130 | 110
Cc1ccc(NC(=O)c2cccc(N(C)C)c2)cc1NC(=O)c1ccc(O)cc1 + O=C(O)c1ccc(-c2c[nH]c3ncc(-c4ccccc4)cc23)cc1C1CCCC1 [GSK650394] (first compound 2 µM, partner dose 0.16 µM) | 47.9 | 223 | 97.5 | 91.8 | 86.9 | 46.7 | 72.1 | 64.2 | 283 | 262
C[C@]1(c2nc3c(C(N)=O)cccc3[nH]2)CCCN1 [Veliparib] + CC(C)(C)c1cnc(CSc2cnc(NC(=O)C3CCNCC3)s2)o1 [SNS-032] (first compound 1.4 µM, partner dose 0.01 µM) | 184 | 106 | 86.6 | 104 | 72.1 | 94.2 | 780 | 187 | 254 | 270
Clc1ccc(Nc2nnc(Cc3ccncc3)c3ccccc23)cc1 [vatalanib] + Cc1cc(N2CCOCC2)cc2[nH]c(-c3c(NC[C@@H](O)c4cccc(Cl)c4)cc[nH]c3=O)nc12 [BMS536924] (first compound 2 µM, partner dose 0.2 µM) | 86 | 156 | 47.6 | 46.6 | 57.5 | 94 | 31 | 99.3 | 55.2 | 113
C[C@@H]1CCN(C(=O)CC#N)C[C@@H]1N(C)c1ncnc2[nH]ccc12 + CN(NC(=O)CC(=O)NN(C)C(=S)c1ccccc1)C(=S)c1ccccc1 [STA4783] (first compound 1 µM, partner dose 0.006 µM) | 156 | 36.8 | 103 | 32.4 | 31 | 55.9 | 201 | 499 | 46.3 | 59.4
COCC[n+]1c2c(n(Cc3cnccn3)c1C)C(=O)c1ccccc1C2=O + Cn1cncc1[C@@](N)(c1ccc(Cl)cc1)c1ccc2c(c1)c(-c1cccc(Cl)c1)cc(=O)n2C [tipifarnib] (first compound 0.0004 µM, partner dose 0.01 µM) | 155 | 93.7 | 32.7 | 78.1 | 46.9 | 194 | 80.2 | 144 | 162 | 158

As a working copy, part of the list above:
Structure (SMILES) | cleaved PARP positive nuclei fraction (MZ2-MEL) [%] | cleaved PARP positive nuclei fraction (MeWo) [%] | cleaved PARP positive nuclei fraction (RPMI7951) [%] | cleaved PARP positive nuclei fraction (RVH-421) [%] | cleaved PARP positive nuclei fraction (SkMel28) [%] | cleaved PARP positive nuclei fraction (SkMel2) [%] | cleaved PARP positive nuclei fraction (SkMel30) [%] | cleaved PARP positive nuclei fraction (SkMel5) [%] | cleaved PARP positive nuclei fraction (UACC257) [%] | cleaved PARP positive nuclei fraction (UACC62) [%]
C#Cc1cccc(Nc2ncnc3cc(OCCOC)c(OCCOC)cc23)c1 [erlotinib] + COc1cc2c(Oc3ccc4[nH]c(C)cc4c3F)ncnc2cc1OCCCN1CCCC1 [cediranib] (first compound 0.8 µM, partner dose 0.4 µM) | 82.2 | 106 | 108 | 33.7 | 190 | 136 | 75.2 | 22 | 63.2 | 66.3
C=CCNC1=C2C[C@@H](C)C[C@H](OC)[C@H](O)[C@@H](C)/C=C(\C)[C@H](OC(N)=O)[C@@H](OC)/C=C\C=C(/C)C(=O)NC(=CC1=O)C2=O [Tanespimycin] + CC(C)(C)c1cnc(CSc2cnc(NC(=O)C3CCNCC3)s2)o1 [SNS-032] (first compound 0.002 µM, partner dose 0.01 µM) | 175 | 75.8 | 88.6 | 312 | 109 | 144 | 58.1 | 69.9 | 112 | 84.4
COCC[n+]1c2c(n(Cc3cnccn3)c1C)C(=O)c1ccccc1C2=O + O=C(O)c1ccc(-c2c[nH]c3ncc(-c4ccccc4)cc23)cc1C1CCCC1 [GSK650394] (first compound 0.0004 µM, partner dose 0.16 µM) | 444 | 60 | 59.6 | 46.6 | 186 | 108 | 39.2 | 286 | 105 | 188
OCc1c[nH]c2ccccc12 [Indole-3-carbinol] + COC(=O)c1sccc1S(=O)(=O)Nc1ccc(Nc2ccccc2)cc1OC [GSK0660] (first compound 0.8 µM, partner dose 1 µM) | 52.9 | 53.3 | 28.9 | 97.8 | 66.5 | 68.6 | 120 | 170 | 109 | 149
Cc1nc(Nc2ncc(C(=O)Nc3c(C)cccc3Cl)s2)cc(N2CCN(CCO)CC2)n1 [dasatanib] + Cc1cc(N2CCOCC2)cc2[nH]c(-c3c(NC[C@@H](O)c4cccc(Cl)c4)cc[nH]c3=O)nc12 [BMS536924] (first compound 0.004 µM, partner dose 0.2 µM) | 346 | 124 | 88.7 | 105 | 80.1 | 74.6 | 78.1 | 63.2 | 228 | 306
